Results taken from PubChem BioAssay AID796 (Columbia University Molecular Screening Center, 2007).
Some of the results follow.

Assay: inhibitors of IL-1B driven NFkB p65 nuclear import, primary screen, imaging, HUVEC, IL-1B stimulus, high-content imaging (AID 796)
Details: HUVEC IL-1B NFkB p65 nuclear translocation imaging; cells passing quality filter; at 2 µM; stronger effect = lower value
Compound `COc1ccc(NC2CCN(CCc3ccccc3)CC2)c(OC)c1` has a cell count of 135.
Compound `O=C(NCC1(N2CCOCC2)CCCCC1)c1cc2ccccc2o1` has a cell count of 188.
`O=C(OC1CN2CCC1CC2)C1c2ccccc2Oc2ccccc21` (stereo not given) showed a cell count of 108.
`CN1CCC(Nc2cccc(F)c2)CC1` showed a cell count of 95.
For `N#CC1(Nc2ccccc2)CCN(CCc2ccccc2)CC1`, the cell count was 141.
`O=C(NCC1(N2CCOCC2)CCCCC1)c1cc(=O)[nH]c2ccccc12` showed a cell count of 194.
`c1ccc(CN2CCC(Nc3ccccc3)CC2)cc1` showed a cell count of 86.
Compound `N/C(=N\O)c1c(N)no[n+]1[O-]` has a cell count of 194.
`CCOc1ncccc1C(=O)NCC1(N2CCOCC2)CCCCC1` showed a cell count of 80.
Compound `CCC(CO)(C(=O)OC1CN2CCC1CC2)c1ccccc1` (stereo not given) has a cell count of 68.
